The text below walks through data of the supplement of paper PMC10849652.

Protein sequences, listed by entry. Tags and fused reporters are not part of them. Lines headed by an entry give the natural chain unless they say otherwise; changes in a name come on top.
UniProt Q32P41: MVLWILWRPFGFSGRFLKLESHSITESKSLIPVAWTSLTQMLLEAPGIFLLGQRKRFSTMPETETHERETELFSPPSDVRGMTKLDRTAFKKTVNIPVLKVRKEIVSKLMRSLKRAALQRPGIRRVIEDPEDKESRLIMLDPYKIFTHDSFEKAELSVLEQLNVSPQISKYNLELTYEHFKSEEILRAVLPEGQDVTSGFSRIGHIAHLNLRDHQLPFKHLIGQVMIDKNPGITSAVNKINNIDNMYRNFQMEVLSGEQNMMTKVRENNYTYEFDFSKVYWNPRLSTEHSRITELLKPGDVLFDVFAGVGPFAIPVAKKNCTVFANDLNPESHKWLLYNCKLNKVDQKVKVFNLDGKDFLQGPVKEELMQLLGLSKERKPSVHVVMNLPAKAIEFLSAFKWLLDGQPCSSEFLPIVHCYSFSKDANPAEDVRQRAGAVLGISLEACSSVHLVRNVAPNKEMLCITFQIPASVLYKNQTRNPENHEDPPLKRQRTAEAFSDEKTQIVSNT
UniProt P48553, whole entry, looked up: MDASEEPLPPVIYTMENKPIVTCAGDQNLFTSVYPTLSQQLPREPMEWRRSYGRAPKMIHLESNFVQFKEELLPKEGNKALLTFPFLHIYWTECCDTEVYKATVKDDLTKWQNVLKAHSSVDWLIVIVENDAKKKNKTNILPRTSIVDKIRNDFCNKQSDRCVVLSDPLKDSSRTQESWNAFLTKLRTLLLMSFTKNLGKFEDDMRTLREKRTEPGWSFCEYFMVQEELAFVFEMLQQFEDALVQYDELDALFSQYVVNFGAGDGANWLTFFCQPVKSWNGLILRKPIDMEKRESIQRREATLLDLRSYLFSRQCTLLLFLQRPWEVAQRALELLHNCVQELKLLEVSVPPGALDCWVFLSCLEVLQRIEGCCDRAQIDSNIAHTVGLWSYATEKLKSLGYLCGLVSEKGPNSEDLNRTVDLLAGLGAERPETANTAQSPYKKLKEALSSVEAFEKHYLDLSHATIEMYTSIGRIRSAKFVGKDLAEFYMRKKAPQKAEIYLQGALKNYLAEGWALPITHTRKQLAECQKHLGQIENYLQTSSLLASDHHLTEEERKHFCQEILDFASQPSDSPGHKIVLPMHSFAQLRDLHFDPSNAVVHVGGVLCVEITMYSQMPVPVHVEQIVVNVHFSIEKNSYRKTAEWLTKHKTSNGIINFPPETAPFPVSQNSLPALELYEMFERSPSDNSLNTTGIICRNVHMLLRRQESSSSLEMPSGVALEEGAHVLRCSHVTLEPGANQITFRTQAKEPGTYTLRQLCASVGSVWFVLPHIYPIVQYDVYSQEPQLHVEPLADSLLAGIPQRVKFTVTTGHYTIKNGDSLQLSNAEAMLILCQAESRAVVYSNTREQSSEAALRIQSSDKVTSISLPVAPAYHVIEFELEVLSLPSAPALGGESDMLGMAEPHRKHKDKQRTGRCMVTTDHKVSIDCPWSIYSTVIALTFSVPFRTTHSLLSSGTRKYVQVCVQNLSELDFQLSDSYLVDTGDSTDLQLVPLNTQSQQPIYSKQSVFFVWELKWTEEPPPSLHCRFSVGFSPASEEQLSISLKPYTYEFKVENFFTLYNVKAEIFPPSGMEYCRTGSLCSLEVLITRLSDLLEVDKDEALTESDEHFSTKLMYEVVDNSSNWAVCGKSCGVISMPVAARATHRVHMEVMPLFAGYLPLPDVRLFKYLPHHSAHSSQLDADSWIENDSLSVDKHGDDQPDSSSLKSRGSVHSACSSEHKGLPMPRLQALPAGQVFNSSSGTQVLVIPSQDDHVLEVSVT
UniProt Q9H3H1: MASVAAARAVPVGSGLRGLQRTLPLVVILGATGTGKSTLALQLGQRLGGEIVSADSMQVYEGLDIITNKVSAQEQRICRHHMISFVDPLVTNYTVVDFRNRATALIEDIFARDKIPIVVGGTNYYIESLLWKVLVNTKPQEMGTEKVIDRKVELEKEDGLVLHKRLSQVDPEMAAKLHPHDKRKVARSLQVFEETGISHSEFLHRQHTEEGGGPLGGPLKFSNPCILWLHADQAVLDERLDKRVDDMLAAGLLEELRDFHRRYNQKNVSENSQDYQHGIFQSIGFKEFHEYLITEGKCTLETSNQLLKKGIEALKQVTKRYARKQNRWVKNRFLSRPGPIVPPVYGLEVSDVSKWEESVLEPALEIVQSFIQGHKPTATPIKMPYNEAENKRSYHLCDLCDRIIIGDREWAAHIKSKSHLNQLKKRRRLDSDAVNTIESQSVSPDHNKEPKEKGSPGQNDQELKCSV
UniProt Q8N5M4: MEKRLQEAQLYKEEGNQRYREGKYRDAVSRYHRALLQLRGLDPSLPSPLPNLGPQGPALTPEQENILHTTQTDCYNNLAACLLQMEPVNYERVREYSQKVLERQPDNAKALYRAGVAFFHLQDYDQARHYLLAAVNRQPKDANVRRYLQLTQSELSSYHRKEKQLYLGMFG
UniProt Q86SZ2: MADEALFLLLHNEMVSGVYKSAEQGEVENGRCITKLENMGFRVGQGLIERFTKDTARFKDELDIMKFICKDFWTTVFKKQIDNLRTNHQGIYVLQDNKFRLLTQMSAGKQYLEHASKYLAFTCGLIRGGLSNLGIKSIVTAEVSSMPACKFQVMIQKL
UniProt Q8WVT3: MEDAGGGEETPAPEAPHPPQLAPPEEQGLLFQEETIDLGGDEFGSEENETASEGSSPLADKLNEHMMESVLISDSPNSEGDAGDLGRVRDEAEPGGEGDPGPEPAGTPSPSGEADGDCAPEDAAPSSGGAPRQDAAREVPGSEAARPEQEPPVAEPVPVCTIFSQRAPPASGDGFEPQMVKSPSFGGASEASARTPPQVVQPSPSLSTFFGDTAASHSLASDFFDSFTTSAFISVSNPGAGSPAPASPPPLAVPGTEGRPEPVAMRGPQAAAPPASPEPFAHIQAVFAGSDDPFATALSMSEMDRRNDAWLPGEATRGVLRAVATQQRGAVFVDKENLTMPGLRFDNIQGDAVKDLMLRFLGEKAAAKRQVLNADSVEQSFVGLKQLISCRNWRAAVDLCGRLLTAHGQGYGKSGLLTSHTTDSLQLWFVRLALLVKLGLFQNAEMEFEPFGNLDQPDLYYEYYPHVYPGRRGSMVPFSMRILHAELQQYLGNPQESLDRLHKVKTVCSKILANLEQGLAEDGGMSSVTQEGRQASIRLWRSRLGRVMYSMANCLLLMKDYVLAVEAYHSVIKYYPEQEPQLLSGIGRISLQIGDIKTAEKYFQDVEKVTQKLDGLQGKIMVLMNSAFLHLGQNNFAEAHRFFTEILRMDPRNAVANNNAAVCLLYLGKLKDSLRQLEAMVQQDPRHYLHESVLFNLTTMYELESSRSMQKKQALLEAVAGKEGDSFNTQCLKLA
UniProt Q99598: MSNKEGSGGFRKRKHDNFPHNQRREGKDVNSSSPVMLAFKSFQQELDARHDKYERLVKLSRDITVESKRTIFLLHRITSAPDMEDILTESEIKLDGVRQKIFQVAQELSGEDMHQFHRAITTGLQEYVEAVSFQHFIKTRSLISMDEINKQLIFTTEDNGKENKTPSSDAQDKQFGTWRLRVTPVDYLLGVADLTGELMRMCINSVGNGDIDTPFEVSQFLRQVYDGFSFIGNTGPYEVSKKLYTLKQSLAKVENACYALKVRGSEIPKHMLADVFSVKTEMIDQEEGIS
UniProt P19474, whole entry, looked up: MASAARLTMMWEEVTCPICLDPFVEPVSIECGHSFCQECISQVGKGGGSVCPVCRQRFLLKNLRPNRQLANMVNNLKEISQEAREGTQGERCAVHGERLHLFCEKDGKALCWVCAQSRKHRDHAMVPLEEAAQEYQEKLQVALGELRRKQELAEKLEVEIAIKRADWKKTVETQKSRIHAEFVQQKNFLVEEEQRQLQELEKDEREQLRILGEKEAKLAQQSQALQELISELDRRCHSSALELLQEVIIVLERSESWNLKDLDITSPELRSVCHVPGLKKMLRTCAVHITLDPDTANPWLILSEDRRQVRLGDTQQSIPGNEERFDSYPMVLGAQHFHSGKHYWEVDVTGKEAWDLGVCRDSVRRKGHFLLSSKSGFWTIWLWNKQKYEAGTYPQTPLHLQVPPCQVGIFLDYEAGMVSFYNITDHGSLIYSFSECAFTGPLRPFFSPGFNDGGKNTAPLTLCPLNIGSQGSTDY
UniProt A5PLN9: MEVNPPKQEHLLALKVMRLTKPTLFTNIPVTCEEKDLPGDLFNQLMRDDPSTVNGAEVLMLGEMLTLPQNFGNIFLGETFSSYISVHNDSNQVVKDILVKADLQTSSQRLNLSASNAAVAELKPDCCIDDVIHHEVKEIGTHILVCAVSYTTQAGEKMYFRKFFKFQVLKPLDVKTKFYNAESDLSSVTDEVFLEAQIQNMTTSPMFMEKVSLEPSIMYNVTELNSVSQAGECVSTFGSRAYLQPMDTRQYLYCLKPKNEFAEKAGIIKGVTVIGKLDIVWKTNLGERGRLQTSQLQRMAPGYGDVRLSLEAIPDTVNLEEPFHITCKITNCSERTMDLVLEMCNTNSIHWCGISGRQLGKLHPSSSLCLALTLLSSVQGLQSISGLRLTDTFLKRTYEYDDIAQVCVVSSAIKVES
UniProt Q96Q05, whole entry, looked up: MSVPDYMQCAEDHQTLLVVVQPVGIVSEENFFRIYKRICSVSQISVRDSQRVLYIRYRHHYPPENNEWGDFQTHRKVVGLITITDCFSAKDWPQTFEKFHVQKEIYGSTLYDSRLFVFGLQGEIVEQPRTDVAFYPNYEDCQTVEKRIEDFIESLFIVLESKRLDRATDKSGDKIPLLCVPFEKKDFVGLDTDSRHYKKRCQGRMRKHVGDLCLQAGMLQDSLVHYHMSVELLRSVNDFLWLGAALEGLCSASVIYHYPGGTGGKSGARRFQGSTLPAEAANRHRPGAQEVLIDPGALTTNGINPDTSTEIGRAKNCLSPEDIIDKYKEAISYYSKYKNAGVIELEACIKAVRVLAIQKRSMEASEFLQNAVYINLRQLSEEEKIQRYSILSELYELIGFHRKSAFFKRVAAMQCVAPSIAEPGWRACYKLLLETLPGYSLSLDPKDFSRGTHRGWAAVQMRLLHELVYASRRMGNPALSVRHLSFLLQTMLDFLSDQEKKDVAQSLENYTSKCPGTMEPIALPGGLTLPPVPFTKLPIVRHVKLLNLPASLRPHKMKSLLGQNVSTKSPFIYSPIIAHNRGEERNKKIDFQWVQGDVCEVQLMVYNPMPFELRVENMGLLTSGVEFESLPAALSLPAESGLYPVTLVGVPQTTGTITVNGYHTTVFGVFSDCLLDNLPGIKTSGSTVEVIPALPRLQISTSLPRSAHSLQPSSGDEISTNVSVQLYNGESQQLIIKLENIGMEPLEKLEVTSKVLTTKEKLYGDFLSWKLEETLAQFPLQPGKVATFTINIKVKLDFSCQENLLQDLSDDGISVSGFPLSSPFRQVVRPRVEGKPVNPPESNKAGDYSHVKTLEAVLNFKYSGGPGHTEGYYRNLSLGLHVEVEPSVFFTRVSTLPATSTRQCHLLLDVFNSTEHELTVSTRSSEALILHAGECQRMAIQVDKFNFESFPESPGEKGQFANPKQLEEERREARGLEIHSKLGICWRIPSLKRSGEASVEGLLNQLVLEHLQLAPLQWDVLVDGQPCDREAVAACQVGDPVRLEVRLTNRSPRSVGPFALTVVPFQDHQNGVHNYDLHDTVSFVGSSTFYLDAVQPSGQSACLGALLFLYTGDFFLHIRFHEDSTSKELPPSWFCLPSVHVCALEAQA
UniProt Q15642: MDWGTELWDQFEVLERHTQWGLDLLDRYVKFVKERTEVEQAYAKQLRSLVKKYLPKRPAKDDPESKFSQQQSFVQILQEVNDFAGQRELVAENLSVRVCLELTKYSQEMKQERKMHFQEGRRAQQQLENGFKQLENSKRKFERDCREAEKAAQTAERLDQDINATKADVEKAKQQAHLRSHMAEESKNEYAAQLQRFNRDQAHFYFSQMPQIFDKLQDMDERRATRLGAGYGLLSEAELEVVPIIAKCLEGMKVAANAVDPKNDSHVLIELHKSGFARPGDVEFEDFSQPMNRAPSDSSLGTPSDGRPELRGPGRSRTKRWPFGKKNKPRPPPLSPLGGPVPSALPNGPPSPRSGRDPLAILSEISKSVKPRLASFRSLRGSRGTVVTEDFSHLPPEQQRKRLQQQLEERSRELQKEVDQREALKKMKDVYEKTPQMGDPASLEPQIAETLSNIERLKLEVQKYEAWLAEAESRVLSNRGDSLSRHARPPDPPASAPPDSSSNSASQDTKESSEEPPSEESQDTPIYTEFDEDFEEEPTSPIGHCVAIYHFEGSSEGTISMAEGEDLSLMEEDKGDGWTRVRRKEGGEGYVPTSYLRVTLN
UniProt Q9NX07: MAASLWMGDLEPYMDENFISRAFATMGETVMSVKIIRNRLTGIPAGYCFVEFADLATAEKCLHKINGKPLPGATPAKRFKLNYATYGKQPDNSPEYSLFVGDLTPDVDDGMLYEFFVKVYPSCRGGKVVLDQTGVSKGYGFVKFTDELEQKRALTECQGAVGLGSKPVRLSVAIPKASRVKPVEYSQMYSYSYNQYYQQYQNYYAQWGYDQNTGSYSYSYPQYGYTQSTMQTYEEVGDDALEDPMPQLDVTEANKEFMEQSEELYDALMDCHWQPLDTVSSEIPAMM
UniProt O43715: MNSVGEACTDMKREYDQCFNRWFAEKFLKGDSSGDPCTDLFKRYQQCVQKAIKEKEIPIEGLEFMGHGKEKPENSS

Some of the results follow.

Compound in the first test: Cn1cncc1[C@@](N)(c1ccc(Cl)cc1)c1ccc2c(c1)c(-c1cccc(Cl)c1)cc(=O)n2C [tipifarnib]
The test is described as follows: log2 fold change, soluble protein after heating vs DMSO (PISA); higher = thermal stabilisation; K562 lysate, 10 uM; active = over 0.2 and 3.5 SD of the protein, either way, in both replicates (recomputed). The procedure, abridged:
(§1)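 A 30 min treatment with 10 μM compound was applied to crude K562 extract at 1 mg/mL protein in PBS pH 7.4 with 1 mM MgCl2. Heating for 3 min spanned 48°C-58°C, after which aliquots were pooled, adjusted to 0.5% NP-40 at 4°C and spun at 21,000xg for 90 min. TMTpro 16plex LC-MS/MS of the supernatant, with channel sums equalised, gave values recorded as log-two fold change in thermal stability against solvent controls, from duplicates.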
As to TRMT5 (UniProt Q32P41), the log2 fold change was inactive: -0.016.
Still for that read-out and setting: in the case of TRAPPC10 (UniProt P48553) it was inactive: 0.011; in that of TRIT1 (UniProt Q9H3H1), inactive: 0.016; in that of TTC9C (UniProt Q8N5M4), inactive: 0.072.
Still for that read-out and setting: as for TRIP12 isoform 2 (UniProt Q14669), the figure is inactive: -0.017.
On the same count and under the same terms, as for TRAPPC6B (UniProt Q86SZ2), the figure is inactive: -0.007.
Turning to TTI2 (UniProt Q6NXR4), the log2 fold change is inactive: -0.018.
Regarding TSPYL2 (UniProt Q9H2G4), the log2 fold change is inactive: -0.038.
Same read-out and setting: in the case of TTC26 it was inactive: 0.167.
As to TRAPPC12 (UniProt Q8WVT3), the log2 fold change is inactive: 0.039.
On the same count and under the same terms, as for TSNAX (UniProt Q99598), the figure is inactive: -0.007.
Same read-out and setting: as for TRIM21 (UniProt P19474), the figure is inactive: 0.019; as for TRAPPC13 isoform 4 (UniProt A5PLN9), inactive: -0.017.
Still for that read-out and setting: as for TRAPPC9 isoform 2 (UniProt Q96Q05), the figure is inactive: 0.026.
As for TRIP10 isoform 2 (UniProt Q15642), the log2 fold change is inactive: 0.117.
Still for that read-out and setting: as for TRNAU1AP (UniProt Q9NX07), the figure is inactive: -0.06; as for TRMT112 (UniProt Q9UI30), inactive: 0.052.

Compound in the next test: NC(=O)Nc1cc(-c2cccc(F)c2)sc1C(=O)N[C@H]1CCCNC1
Described as above. The procedure, abridged:
as §1
As for TRIM32 (UniProt Q13049), the log2 fold change is inactive: -0.018.
Still for that read-out and setting: in the case of TRIM28 (UniProt Q13263) it was inactive: 0.005; in that of TST (UniProt Q16762), inactive: 0.061.
On the same count and under the same terms, as for TRMT1L (UniProt Q7Z2T5), the figure is inactive: 0.029.
On the same count and under the same terms, in the case of TRUB1 (UniProt Q8WWH5) it was inactive: 0.008; in that of TTC37 (UniProt Q6PGP7), inactive: 0.065.
Take TRPT1 isoform 4 (UniProt Q86TN4): the log2 fold change is inactive: 0.03.
Same read-out and setting: as for TTC38 (UniProt Q5R3I4), the figure is inactive: -0.036.
The same measure, in the same setting: in the case of TSPYL1 (UniProt Q9H0U9) it was inactive: 0.06; in that of TRAPPC2 isoform 3 (UniProt P0DI81), inactive: 0.017; in that of TRAPPC11 (UniProt Q7Z392), inactive: 0.02.
The same measure, in the same setting: in the case of TSR2 (UniProt Q969E8) it was inactive: -0.074; in that of TRMT1 (UniProt Q9NXH9), inactive: 0.005.
For TTLL12 (UniProt Q14166), the log2 fold change was inactive: 0.067.
Still for that read-out and setting: as for TTC12 isoform 2 (UniProt Q9H892), the figure is inactive: 0.007.
Same read-out and setting: in the case of TRIM58 (UniProt Q8NG06) it was inactive: 0.075.
On the same count and under the same terms, as for TTC4 (UniProt O95801), the figure is inactive: 0.025; as for TRIM56 (UniProt Q9BRZ2), inactive: 0.005.
For TRIP11 (UniProt Q15643), the log2 fold change is inactive: 0.055.
The same measure, in the same setting: as for TRIM24 (UniProt O15164), the figure is inactive: 0.022.
On the same count and under the same terms, in the case of TRIAP1 (UniProt O43715) it was inactive: 0.037.
Still for that read-out and setting: as for TSC22D2 (UniProt O75157), the figure is inactive: -0.039.
Consider TRMT5 (UniProt Q32P41), for which the log2 fold change was inactive: 0.035.
Same read-out and setting: as for TRAPPC10 (UniProt P48553), the figure is inactive: 0.035; as for TRIT1 (UniProt Q9H3H1), inactive: 0.062.
Still for that read-out and setting: as for TTC9C (UniProt Q8N5M4), the figure is inactive: -0.001; as for TRIP12 isoform 2 (UniProt Q14669), inactive: 0.057; as for TRAPPC6B (UniProt Q86SZ2), inactive: -0.015.
On the same count and under the same terms, as for TTI2 (UniProt Q6NXR4), the figure is inactive: -0.003; as for TSPYL2 (UniProt Q9H2G4), inactive: 0.047; as for TRAPPC12 (UniProt Q8WVT3), inactive: -0.018.
Regarding TSNAX (UniProt Q99598), the log2 fold change was inactive: -0.005.
Still for that read-out and setting: as for TRIM21 (UniProt P19474), the figure is inactive: 0.044; as for TRAPPC13 isoform 4 (UniProt A5PLN9), inactive: 0.018.
On the same count and under the same terms, in the case of TRAPPC9 isoform 2 (UniProt Q96Q05) it was inactive: 0.
Same read-out and setting: in the case of TRIP10 isoform 2 (UniProt Q15642) it was inactive: 0.069.
Take TRNAU1AP (UniProt Q9NX07): the log2 fold change is inactive: 0.059.
For TRMT112 (UniProt Q9UI30), the log2 fold change was inactive: -0.029.

Compound in a further test: NC(=O)c1cnc(N[C@@H]2CCCC[C@@H]2N)nc1Nc1cccc(-n2nccn2)c1
The description is as above. The procedure, abridged:
as §1
In the case of TRIM32 (UniProt Q13049), the log2 fold change was inactive: -0.008.
On the same count and under the same terms, as for TRIM28 (UniProt Q13263), the figure is inactive: -0.014; as for TST (UniProt Q16762), inactive: 0.012; as for TRMT1L (UniProt Q7Z2T5), inactive: 0.027.
The same measure, in the same setting: as for TRUB1 (UniProt Q8WWH5), the figure is inactive: -0.102.
Still for that read-out and setting: as for TTC37 (UniProt Q6PGP7), the figure is inactive: 0.005.
Regarding TRPT1 isoform 4 (UniProt Q86TN4), the log2 fold change is inactive: 0.13.
Same read-out and setting: as for TTC38 (UniProt Q5R3I4), the figure is inactive: 0.015.
On the same count and under the same terms, in the case of TSPYL1 (UniProt Q9H0U9) it was inactive: 0.154.
Same read-out and setting: as for TRAPPC2 isoform 3 (UniProt P0DI81), the figure is inactive: 0.018; as for TRAPPC11 (UniProt Q7Z392), inactive: 0.01; as for TSR2 (UniProt Q969E8), inactive: -0.006.
For TRMT1 (UniProt Q9NXH9), the log2 fold change is inactive: 0.
As to TTLL12 (UniProt Q14166), the log2 fold change was inactive: 0.001.
Turning to TTC12 isoform 2 (UniProt Q9H892), the log2 fold change was inactive: -0.041.
Still for that read-out and setting: in the case of TTC4 (UniProt O95801) it was inactive: 0.023; in that of TRIM56 (UniProt Q9BRZ2), inactive: -0.01.
The same measure, in the same setting: in the case of TRIP11 (UniProt Q15643) it was inactive: 0.007; in that of TRIM24 (UniProt O15164), inactive: -0.011; in that of TRIAP1 (UniProt O43715), inactive: -0.041.
On the same count and under the same terms, in the case of TSC22D2 (UniProt O75157) it was inactive: 0.015.
Regarding TSEN15, A0A2U3TZM3, the log2 fold change was inactive: 0.08.
The same measure, in the same setting: in the case of TRMT5 (UniProt Q32P41) it was inactive: 0.033; in that of TRAPPC10 (UniProt P48553), inactive: 0.026; in that of TRIT1 (UniProt Q9H3H1), inactive: 0.052.
Turning to TTC9C (UniProt Q8N5M4), the log2 fold change is inactive: -0.001.
Still for that read-out and setting: in the case of TRIP12 isoform 2 (UniProt Q14669) it was inactive: 0.016; in that of TRAPPC6B (UniProt Q86SZ2), inactive: 0.007; in that of TTI2 (UniProt Q6NXR4), inactive: 0.049.
Same read-out and setting: as for TRAPPC12 (UniProt Q8WVT3), the figure is inactive: -0.007.
The same measure, in the same setting: in the case of TSNAX (UniProt Q99598) it was inactive: -0.012; in that of TRIM21 (UniProt P19474), inactive: 0.043.
In the case of TRAPPC13 isoform 4 (UniProt A5PLN9), the log2 fold change was inactive: -0.01.
The same measure, in the same setting: as for TRAPPC9 isoform 2 (UniProt Q96Q05), the figure is inactive: -0.011; as for TRIP10 isoform 2 (UniProt Q15642), inactive: -0.093.
The same measure, in the same setting: in the case of TRNAU1AP (UniProt Q9NX07) it was inactive: -0.011.
Take TRMT112 (UniProt Q9UI30): the log2 fold change was inactive: 0.005.
